We go through three molecules from article PMC7925594.

Chains of the proteins cited; added tags and fusions are not shown.
UniProt Q9Y6K9: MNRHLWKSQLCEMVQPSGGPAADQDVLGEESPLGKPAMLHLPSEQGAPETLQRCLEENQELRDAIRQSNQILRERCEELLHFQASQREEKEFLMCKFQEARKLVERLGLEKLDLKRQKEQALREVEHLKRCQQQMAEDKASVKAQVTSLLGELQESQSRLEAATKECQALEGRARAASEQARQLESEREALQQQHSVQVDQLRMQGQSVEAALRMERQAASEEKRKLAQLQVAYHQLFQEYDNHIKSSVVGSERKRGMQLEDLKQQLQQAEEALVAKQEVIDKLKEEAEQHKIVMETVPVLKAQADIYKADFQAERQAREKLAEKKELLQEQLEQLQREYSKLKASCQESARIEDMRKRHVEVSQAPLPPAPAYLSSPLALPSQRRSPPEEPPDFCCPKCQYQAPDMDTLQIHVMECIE
UniProt O88522: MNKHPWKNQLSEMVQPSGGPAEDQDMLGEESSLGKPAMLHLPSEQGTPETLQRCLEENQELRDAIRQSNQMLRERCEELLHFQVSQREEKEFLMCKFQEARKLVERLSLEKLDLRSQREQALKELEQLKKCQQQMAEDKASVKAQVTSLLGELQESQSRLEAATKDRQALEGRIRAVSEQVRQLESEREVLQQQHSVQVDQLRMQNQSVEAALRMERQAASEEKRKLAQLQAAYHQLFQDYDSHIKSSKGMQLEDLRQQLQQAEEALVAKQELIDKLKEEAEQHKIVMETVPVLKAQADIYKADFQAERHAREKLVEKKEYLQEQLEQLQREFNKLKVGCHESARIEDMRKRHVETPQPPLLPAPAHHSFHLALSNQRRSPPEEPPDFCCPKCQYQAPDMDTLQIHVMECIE

Test [1] concerns the target Flag-tagged NEMO (UniProt Q9Y6K9). The experiment in a line: co-IP; HEK293T or N4BP1-/- HEK293T cells co-transfected with HA-N4BP1 (or deletion mutants) and Flag-NEMO (or deletion mutants); NP-40 lysis buffer; immunoprecipitation and immunoblot. (In general: Immunoblotting shows a protein as a band on a membrane.)
Test [2] has the same target. The experiment in a line: co-IP; purified recombinant HA-N4BP1 and Flag-NEMO incubated without or with linear hepta-ubiquitin (K63-linked chains in Supplementary Fig. 5b) in assay buffer (50 mM Tris-HCl pH 7.4, 150 mM NaCl, 1 mM dithiothreitol), 2 h at 4 °C; immunoprecipitation with anti-Flag; ubiquitin chains enhanced the interaction dose-dependently; both purified.
The target in test [3] is NEMO, endogenous in mouse peritoneal macrophages (mouse (endogenous in peritoneal macrophages)) (UniProt O88522). The experiment in a line: co-IP; endogenous proteins in wild-type and N4bp1-/- mouse peritoneal macrophages, unstimulated or stimulated with Pam3CSK4; NP-40 lysis buffer; lysates incubated overnight at 4 °C with NEMO antibody and Protein G magnetic beads, rabbit IgG as control; immunoblot.

Results are given in words; binding and its absence hold for the method and conditions named. For some of these results: Binding seen in cells or lysates may run through a third protein. Some entries that bind do so weakly or less than the wild type. For some of these results: Where a sequence is shown, tags or fusion partners need not be part of it.

B1: HA-tagged N4BP1 (full-length) (protein, UniProt O75113 1-896)
chain: MAARAVLDEFTAPAEKAELLEQSRGRIEGLFGVSLAVLGALGAEEPLPARIWLQLCGAQEAVHSAKEYIKGICEPELEERECYPKDMHCIFVGAESLFLKSLIQDTCADLCILDIGLLGIRGSAEAVVMARSHIQQFVKLFENKENLPSSQKESEVKREFKQFVEAHADNYTMDLLILPTSLKKELLTLTQGEENLFETGDDEVIEMRDSQQTEFTQNAATGLNISRDETVLQEEARNKAGTPVSELTKQMDTVLSSSPDVLFDPINGLTPDEEALSNERICQKRRFSDSEERHTKKQFSLENVQEGEILHDAKTLAGNVIADLSDSSADSENLSPDIKETTEEMEYNILVNFFKTMGYSQEIVEKVIKVYGPSTEPLLLLEEIEKENKRFQEDREFSAGTVYPETNKTKNKGVYSSTNELTTDSTPKKTQAHTQQNMVEKFSQLPFKVEAKPCTSNCRINTFRTVPIEQKHEVWGSNQNYICNTDPETDGLSPSVASPSPKEVNFVSRGASSHQPRVPLFPENGLHQQPEPLLPNNMKSACEKRLGCCSSPHSKPNCSTLSPPMPLPQLLPSVTDARSAGPSDHIDSSVTGVQRFRDTLKIPYKLELKNEPGRTDLKHIVIDGSNVAITHGLKKFFSCRGIAIAVEYFWKLGNRNITVFVPQWRTRRDPNVTEQHFLTQLQELGILSLTPARMVFGERIASHDDRFLLHLADKTGGIIVTNDNFREFVNESVSWREIITKRLLQYTFVGDIFMVPDDPLGRSGPRLEEFLQKEVCLRDMQPLLSALPNVGMFDPSFRVPGTQAASTSHQPPTRIQGAPSSHWLPQQPHFPLLPALPSLQQNLPMPAQRSSAETNELREALLKIFPDSEQRLKIDQILVAHPYMKDLNALSAMVLD
Consider B1, for which the binding result in the test with Flag-tagged NEMO [1] and with Flag-tagged NEMO [2] was “binds” each time.

B2: N4BP1, endogenous in mouse peritoneal macrophages (protein, UniProt Q6A037 1-893)
chain: MAARVVLDEFTAPAEKAALLERSRGRIEALFGVGLAVLGALGAEEPLPARIWLQLRGAQEAVHSAKEYIKGICEPELEEKECYPKAMHCIFVGAQSLFLKSLIQDTCADLCVLDTGLLGIRGSAEAVVMARSHIQQFVKLFESNENLPSNQRESEIKREFRQFVEAHADSYTMDLLILPTSLKKELLSLTQGEESLFETDDDVITVGDVRPPEYTQSAATGPSSARDEVVVQEDSRNKARTPVSELTKHMDTVFSSSPDVLFVPVNGLSPDEDALSKDRVCHKRRSSDTEERHTKKQFSLENVPEGELLPDGKGSAGNEVIDLSDPASNSTNLSPDGKDTTEEMEYNILVNFFKTMGYSQEIVEKVIREYGPSTEPLLLLEEIEKENKRLQEDRDFPPCTVYPDASQSRNAGVGSTTNELTADSTPKKAQSHTEQSMVERFSQLPFKDSKHCTSNCKVNSFRTVPVGQKQEIWGSKQNSSCTVDLETDGHSASAASASPKDISFVSRGASGHQQRNPAFPENGFQQQTEPLLPNNTKPACEKRSGSCSSPQPKPNYPPLSPPLPLPQLLPSVTEARLGGSSDHIDSSVTGVQRFRDTLKIPYKLELKNEPGRADLKHIVIDGSNVAITHGLKKFFSCRGIAIAVEYFWKLGNRNITVFVPQWRTRRDPNITEQHFLTQLQELGILSLTPARMVFGERIASHDDRFLLHLADKTGGIIVTNDNFREFVTESVSWREIITKRLLQYTFVGDIFMVPDDPLGRNGPRLEEFLRKEAFLRHMQPLLNALPSVGTFDPGFRSPSTQVANNSHQPPPRIQTSSSPWLPQQSHFTALATLPSMQQNPPLPAQRSSAETSELREALLKIFPDSEQKLKIDQILAAHPYMKDLNALSALVLD
With B2, the binding result in test [3] is recorded as “binds”.

B3: IKKβ, endogenous in mouse peritoneal macrophages (protein, UniProt O88351 1-757)
chain: MSWSPSLPTQTCGAWEMKERLGTGGFGNVIRWHNQATGEQIAIKQCRQELSPKNRNRWCLEIQIMRRLNHPNVVAARDVPEGMQNLAPNDLPLLAMEYCQGGDLRRYLNQFENCCGLREGAVLTLLSDIASALRYLHENRIIHRDLKPENIVLQQGEKRLIHKIIDLGYAKELDQGSLCTSFVGTLQYLAPELLEQQKYTVTVDYWSFGTLAFECITGFRPFLPNWQPVQWHSKVRQKSEVDIVVSEDLNGAVKFSSSLPFPNNLNSVLAERLEKWLQLMLMWHPRQRGTDPQYGPNGCFRALDDILNLKLVHVLNMVTGTVHTYPVTEDESLQSLKTRIQENTGILETDQELLQKAGLVLLPDKPATQCISDSKTNEGLTLDMDLVFLLDNSKINYETQITPRPPPESVSCILQEPKRNLSFFQLRKVWGQVWHSIQTLKEDCNRLQQGQRAAMMSLLRNNSCLSKMKNAMASTAQQLKAKLDFFKTSIQIDLEKYKEQTEFGITSDKLLLAWREMEQAVEQCGRENDVKHLVERMMALQTDIVDLQRSPMGRKQGGTLDDLEEQARELYRKLREKPRDQRTEGDSQEMVRLLLQAIQSFEKKVRVIYTQLSKTVVCKQKALELLPKVEEVVSLMNEDERTVVRLQEKRQKELWNLLKIACSKVRGPVSGSPDSMNVSRLSHPGQLMSQPSSACDSLPESDKKSEELVAEAHALCSRLESALQDTVKEQDRSFTTLDWSWLQMEDEERCSLEQACD
For B3, in test [3], the binding result is on record as “binds”.
